No constants are given. Whether binding was seen depends on the method and setting. Some results given as binding are weak or reduced against the parent protein; the word gives no strength.
Target: crossbeta E2 (cE2), E2 affinity purified on the anti-E2 antibody V3 column (Classical Swine Fever Virus) (UniProt P21530)
Experiment: ELISA, coated E2 form, Fn F4-5 concentration series, anti-FLAG detection

Sequences of proteins named here, by UniProt entry; tags and fusion partners are left off. Residues count along the entry.
UniProt P02751, 184-273: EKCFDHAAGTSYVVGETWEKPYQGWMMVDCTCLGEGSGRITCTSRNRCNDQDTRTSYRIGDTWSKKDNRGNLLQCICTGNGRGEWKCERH

fourth and fifth finger domain of fibronectin (Fn F4-5) with C-terminal FLAG-tag (from UniProt P02751 184-273)
binding: binds
